Assay results as given in the supplement of paper PMC7666118.
The list shows a part of the results.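 How the source made its calls: active = dose-dependent thermal stabilisation significant by F-test of dose-response against flat model at 10% FDR; inactive = not significant.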

By UniProt entry, the sequences of proteins in these tests, tags left out. Where a name states a change or a piece, a line headed by the entry shows the natural chain unless it says otherwise.
UniProt Q9P2K5: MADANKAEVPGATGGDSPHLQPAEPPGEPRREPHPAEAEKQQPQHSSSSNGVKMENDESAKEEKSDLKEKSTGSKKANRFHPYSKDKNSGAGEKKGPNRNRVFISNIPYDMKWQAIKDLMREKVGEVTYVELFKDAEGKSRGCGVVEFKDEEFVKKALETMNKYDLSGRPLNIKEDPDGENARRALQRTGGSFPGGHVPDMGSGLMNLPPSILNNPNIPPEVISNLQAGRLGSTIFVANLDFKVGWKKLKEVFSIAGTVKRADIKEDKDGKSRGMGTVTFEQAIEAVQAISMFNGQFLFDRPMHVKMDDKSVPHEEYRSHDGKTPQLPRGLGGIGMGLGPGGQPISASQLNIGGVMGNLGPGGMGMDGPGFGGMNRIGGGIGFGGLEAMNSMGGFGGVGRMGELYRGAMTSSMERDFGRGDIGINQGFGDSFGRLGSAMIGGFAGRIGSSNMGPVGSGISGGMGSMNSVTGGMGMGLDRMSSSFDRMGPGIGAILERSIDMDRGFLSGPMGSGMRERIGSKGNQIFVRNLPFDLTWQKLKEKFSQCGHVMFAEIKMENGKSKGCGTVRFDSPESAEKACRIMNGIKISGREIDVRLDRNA
UniProt Q6UWE0: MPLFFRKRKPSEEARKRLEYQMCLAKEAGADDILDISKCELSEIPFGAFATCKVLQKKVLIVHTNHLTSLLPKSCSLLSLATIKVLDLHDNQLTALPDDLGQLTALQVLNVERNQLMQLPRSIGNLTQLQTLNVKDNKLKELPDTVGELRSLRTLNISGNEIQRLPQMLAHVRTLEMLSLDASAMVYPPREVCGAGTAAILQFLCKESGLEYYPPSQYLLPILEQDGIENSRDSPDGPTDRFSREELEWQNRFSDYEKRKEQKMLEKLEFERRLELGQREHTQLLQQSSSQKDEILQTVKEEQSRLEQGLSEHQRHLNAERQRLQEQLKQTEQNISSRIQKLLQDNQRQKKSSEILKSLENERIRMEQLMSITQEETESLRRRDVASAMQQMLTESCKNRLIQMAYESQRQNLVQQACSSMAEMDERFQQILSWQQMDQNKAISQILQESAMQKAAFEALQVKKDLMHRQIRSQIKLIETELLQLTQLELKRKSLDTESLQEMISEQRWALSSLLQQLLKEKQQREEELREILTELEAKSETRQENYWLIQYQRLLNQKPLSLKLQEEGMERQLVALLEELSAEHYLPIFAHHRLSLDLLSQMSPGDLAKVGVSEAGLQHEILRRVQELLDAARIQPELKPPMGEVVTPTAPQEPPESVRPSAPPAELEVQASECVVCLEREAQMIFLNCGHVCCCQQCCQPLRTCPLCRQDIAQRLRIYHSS
UniProt Q9H944: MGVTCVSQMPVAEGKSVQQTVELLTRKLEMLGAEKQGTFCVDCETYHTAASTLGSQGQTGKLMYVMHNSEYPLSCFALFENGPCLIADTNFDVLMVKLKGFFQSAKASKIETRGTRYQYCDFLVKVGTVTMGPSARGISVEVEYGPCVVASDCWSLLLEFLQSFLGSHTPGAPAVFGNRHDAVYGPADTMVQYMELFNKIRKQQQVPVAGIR
UniProt Q86VX9: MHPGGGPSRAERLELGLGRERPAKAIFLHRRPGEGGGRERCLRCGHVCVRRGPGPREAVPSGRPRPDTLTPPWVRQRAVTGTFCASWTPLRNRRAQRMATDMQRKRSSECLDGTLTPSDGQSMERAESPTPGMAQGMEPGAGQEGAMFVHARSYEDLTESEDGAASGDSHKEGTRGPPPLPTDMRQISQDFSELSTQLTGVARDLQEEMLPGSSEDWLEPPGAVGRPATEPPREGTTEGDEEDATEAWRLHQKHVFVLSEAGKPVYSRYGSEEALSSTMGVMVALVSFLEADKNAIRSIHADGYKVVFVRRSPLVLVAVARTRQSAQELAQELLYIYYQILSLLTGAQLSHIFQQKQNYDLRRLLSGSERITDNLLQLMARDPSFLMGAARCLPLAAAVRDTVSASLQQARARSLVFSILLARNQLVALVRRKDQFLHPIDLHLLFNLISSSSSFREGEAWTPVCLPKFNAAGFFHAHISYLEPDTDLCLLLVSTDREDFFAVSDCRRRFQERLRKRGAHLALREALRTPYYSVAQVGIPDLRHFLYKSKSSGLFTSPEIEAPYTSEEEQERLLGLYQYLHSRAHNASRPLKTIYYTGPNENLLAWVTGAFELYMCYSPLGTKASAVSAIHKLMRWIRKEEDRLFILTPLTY
UniProt Q9BUK6: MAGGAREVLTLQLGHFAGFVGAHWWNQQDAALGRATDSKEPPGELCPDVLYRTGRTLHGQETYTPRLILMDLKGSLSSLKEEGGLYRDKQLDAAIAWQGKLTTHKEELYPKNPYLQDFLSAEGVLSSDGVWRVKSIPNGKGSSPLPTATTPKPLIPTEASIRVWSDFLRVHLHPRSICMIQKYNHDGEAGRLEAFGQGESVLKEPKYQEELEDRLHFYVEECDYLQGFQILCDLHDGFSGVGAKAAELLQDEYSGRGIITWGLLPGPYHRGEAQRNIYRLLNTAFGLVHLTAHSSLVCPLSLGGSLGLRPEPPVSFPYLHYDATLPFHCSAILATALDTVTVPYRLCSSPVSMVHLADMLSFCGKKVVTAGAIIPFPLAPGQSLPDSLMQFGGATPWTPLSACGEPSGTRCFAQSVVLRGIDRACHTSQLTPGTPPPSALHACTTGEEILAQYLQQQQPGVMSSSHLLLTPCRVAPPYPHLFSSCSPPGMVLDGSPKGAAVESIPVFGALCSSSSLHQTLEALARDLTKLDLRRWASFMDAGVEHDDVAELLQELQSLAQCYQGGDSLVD
UniProt Q7RTP6, whole entry: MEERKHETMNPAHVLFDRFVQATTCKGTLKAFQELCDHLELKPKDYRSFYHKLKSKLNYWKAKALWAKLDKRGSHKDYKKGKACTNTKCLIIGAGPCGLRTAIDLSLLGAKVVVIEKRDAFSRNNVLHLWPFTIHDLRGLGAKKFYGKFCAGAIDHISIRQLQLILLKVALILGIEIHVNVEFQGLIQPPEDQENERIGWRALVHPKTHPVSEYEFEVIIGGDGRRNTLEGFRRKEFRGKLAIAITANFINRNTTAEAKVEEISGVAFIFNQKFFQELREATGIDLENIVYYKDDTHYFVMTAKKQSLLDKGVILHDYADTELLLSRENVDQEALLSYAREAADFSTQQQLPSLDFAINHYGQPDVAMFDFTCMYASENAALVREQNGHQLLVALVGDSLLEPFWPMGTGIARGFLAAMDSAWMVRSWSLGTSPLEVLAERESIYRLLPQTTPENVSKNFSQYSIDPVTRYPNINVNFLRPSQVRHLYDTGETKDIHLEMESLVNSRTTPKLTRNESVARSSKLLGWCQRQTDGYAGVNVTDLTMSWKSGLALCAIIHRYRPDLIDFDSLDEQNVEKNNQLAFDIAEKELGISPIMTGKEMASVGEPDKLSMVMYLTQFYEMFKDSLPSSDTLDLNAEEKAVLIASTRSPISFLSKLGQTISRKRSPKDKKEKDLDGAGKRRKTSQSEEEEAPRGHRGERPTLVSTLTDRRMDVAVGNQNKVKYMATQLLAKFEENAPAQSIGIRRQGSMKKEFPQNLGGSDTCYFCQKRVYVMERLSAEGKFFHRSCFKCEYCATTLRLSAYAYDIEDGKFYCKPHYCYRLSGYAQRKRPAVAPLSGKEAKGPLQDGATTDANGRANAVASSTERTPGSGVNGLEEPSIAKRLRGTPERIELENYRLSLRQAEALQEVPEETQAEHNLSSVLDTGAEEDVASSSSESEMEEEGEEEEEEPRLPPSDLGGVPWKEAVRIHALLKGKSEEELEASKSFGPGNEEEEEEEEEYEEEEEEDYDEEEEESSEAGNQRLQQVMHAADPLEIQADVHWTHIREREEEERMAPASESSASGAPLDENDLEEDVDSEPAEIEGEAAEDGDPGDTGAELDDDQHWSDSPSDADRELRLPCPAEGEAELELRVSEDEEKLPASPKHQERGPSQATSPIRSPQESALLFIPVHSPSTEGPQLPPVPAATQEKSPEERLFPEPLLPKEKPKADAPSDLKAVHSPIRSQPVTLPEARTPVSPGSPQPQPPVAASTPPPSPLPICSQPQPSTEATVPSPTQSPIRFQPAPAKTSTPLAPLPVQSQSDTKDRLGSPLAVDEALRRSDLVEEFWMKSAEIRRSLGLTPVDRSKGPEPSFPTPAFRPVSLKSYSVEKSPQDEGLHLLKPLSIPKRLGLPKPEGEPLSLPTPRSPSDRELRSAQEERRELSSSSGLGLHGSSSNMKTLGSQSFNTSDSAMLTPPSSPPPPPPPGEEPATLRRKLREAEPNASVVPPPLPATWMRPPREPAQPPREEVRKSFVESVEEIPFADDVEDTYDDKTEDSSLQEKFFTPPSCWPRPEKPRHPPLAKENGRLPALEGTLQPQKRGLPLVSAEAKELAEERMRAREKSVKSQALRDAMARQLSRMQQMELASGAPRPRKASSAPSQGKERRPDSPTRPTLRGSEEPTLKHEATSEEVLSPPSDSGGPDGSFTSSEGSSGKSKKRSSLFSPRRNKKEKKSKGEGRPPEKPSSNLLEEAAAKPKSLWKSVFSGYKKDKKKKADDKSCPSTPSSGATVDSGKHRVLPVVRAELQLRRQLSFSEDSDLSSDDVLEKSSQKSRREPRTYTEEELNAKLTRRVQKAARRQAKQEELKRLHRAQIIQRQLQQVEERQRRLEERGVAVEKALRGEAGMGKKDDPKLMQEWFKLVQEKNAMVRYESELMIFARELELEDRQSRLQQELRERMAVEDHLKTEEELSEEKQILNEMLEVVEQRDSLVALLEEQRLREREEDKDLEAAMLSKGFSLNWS
UniProt Q9BV20: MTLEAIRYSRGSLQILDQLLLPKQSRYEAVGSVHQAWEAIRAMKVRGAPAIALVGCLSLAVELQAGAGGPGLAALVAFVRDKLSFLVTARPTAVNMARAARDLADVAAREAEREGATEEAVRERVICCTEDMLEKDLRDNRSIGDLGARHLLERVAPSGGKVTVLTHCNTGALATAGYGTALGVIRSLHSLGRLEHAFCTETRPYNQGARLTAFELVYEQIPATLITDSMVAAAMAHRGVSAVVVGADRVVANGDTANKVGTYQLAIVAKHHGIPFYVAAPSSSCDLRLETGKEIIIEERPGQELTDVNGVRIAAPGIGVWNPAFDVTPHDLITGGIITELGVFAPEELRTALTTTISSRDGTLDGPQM
UniProt Q9UBP6: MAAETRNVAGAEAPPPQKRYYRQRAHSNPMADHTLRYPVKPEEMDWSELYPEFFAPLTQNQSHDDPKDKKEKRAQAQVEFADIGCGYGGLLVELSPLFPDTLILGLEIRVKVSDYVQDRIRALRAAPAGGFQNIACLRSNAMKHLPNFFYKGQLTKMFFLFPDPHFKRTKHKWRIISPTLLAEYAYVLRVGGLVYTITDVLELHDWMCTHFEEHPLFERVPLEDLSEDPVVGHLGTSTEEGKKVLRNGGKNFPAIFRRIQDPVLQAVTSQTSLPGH
UniProt P14174: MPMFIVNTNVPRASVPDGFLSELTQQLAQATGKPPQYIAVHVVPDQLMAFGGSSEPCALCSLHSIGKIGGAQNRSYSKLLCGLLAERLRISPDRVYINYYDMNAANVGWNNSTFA
UniProt P40926: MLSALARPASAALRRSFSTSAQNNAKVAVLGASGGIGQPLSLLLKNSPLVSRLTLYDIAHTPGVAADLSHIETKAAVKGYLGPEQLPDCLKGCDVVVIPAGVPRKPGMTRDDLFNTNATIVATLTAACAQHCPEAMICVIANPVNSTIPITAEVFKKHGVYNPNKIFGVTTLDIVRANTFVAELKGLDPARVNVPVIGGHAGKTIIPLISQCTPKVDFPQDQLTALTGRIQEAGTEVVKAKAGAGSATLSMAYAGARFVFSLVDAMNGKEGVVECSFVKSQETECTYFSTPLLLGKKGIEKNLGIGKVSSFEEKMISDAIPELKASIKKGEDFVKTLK
UniProt Q8NB16: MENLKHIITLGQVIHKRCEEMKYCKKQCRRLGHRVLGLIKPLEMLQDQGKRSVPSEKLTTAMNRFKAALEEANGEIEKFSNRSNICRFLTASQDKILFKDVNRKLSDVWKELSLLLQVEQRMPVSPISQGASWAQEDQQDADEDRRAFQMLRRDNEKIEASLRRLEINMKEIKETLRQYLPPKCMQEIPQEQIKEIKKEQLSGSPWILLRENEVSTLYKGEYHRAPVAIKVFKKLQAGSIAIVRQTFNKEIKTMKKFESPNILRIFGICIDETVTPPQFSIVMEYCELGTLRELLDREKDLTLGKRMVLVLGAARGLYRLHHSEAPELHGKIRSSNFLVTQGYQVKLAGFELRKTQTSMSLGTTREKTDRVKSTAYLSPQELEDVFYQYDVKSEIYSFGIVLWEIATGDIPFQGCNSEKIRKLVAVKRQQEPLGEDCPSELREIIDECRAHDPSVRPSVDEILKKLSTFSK
UniProt Q9Y3A3: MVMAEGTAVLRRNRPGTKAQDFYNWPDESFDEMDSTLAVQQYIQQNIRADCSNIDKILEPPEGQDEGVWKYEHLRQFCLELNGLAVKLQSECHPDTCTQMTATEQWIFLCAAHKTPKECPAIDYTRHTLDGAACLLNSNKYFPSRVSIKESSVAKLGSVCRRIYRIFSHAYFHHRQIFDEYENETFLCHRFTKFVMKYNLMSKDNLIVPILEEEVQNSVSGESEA

compound: Nc1nc2c(ncn2[C@@H]2O[C@H](COP(=O)(O)OP(=O)(O)OP(=O)(O)O)[C@@H](O)[C@H]2O)c(=O)[nH]1; assay: dose-dependent thermal stabilisation call (2D-TPP, DLPTP, 10% FDR) (binary (1 = stabilised)); higher = stabilised by the compound; conditions: system: Jurkat gel-filtered lysate; concentration range 1-500 µM

Row | Target | dose-dependent thermal stabilisation call
1 | MED16 (UniProt Q9Y2X0) | inactive: 0
2 | MYEF2 (UniProt Q9P2K5) | active: 1
3 | LRSAM1 (UniProt Q6UWE0) | inactive: 0
4 | MCRIP1 (UniProt C9JLW8) | inactive: 0
5 | MED20 (UniProt Q9H944) | inactive: 0
6 | MOCS2 (UniProt O96007) | inactive: 0
7 | MON1A (UniProt Q86VX9) | inactive: 0
8 | MICAL1 (UniProt Q8TDZ2) | inactive: 0
9 | MECR (UniProt Q9BV79) | inactive: 0
10 | LUC7L2 (UniProt Q9Y383) | active: 1
11 | MDH1 (UniProt P40925) | active: 1
12 | MSTO1 (UniProt Q9BUK6) | active: 1
13 | MED1 (UniProt Q15648) | inactive: 0
14 | LZTS1 (UniProt Q9Y250) | inactive: 0
15 | MPST (UniProt P25325) | inactive: 0
16 | MIPEP (UniProt Q99797) | active: 1
17 | MED13 (UniProt Q9UHV7) | inactive: 0
18 | MAGOHB (UniProt Q96A72) | inactive: 0

Rewritten as comma-separated lines: entries from further up.
Row,Target,dose-dependent thermal stabilisation call
5,MED20 (UniProt Q9H944),inactive: 0
6,MOCS2 (UniProt O96007),inactive: 0

Further records:

Row | Target | dose-dependent thermal stabilisation call
19 | MICAL3 (UniProt Q7RTP6) | inactive: 0
20 | MAPK7 (UniProt Q13164) | active: 1
21 | MRI1 (UniProt Q9BV20) | inactive: 0
22 | METTL1 (UniProt Q9UBP6) | active: 1
23 | MEF2D (UniProt Q14814) | inactive: 0
24 | MBTD1 (UniProt Q05BQ5) | inactive: 0
25 | LSM14B (UniProt Q9BX40) | inactive: 0
26 | MAX (UniProt P61244) | inactive: 0
27 | LUC7L3 (UniProt O95232) | active: 1
28 | MIF (UniProt P14174) | inactive: 0
29 | MGEA5 (UniProt O60502) | inactive: 0
30 | MDH2 (UniProt P40926) | active: 1
31 | MLKL (UniProt Q8NB16) | active: 1
32 | MTA3 (UniProt Q9BTC8) | active: 1
33 | MYL12B (UniProt O14950) | inactive: 0
34 | MOB4 (UniProt Q9Y3A3) | inactive: 0
35 | MAFK (UniProt O60675) | inactive: 0
36 | MAPRE2 (UniProt Q15555) | inactive: 0
